According to patent EP1028734B1, “USE OF SPECIFIC STEADY-STATE R-TYPE CALCIUM CHANNEL BLOCKERS” (priority 1997, dated 1999):

Experiment: writhe responses in mice (acetic acid, acetylcholine, kaolin)
Type: in vivo
Text: The antinociceptive actions of compound MV 8612 and MV 8608 were investigated in different models of nociception in mice as reported previously (Vaz et al., 1996, J. Pharmacol. Exp. Ther. 278:304-312).

## CN1CC[C@]23c4c5ccc(O)c4O[C@H]2[C@@H](O)C=C[C@H]3[C@H]1C5 [MORPHINE, morphine]
i.c.v., MV 8612 4.2 to 42 nmol/site, morphine 0.26 to 13 nmol/site
  acetic acid-induced writhes, intracerebroventricular dosing: dose-related antinociception
i.p., mice, acetic acid-induced writhes
  ID50 ACETIC ACID: 1.3 (1.0-1.6) µmol/kg
